# Measured values taken from PubChem BioAssay AID493014 (National Center for Advancing Translational Sciences (NCATS), 2011).
# The other results are listed elsewhere or left out. These are further read-outs of the screen, such as a control signal, another cell line or another target. No call is given for them. The list favours compounds with an active or inconclusive main result. Words in brackets tell the shape of the fitted curve; partial curves, single points and poor fits give uncertain potencies.
# Assay: qHTS Assay to Find Inhibitors of Chronic Active B-Cell Receptor Signaling
# Conditions: ABC-DLBCL IkBa-CBG/CBR reporter, luminescence ratio (green luciferase fused to IkBa over red control in TMD8 lymphoma cells), 4 h; measured here: CBR red luminescence, cell number
# Procedure, shortened: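 TMD8 human ABC-DLBCL cells with doxycycline-inducible IκBα–green luciferase fusion and unfused red luciferase, in 0.5% FBS medium; compounds up to 46 uM, 4 h at 37C. Green/red luminescence ratio, filter-overlap corrected, fitted to concentration-response curves.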
row,Compound,AC50
1,O=C(Nc1ccccc1)Nc1ccc(F)cc1F,"25.1 µM [falling, single point]"
2,Cc1nc2ccccn2c1C(=O)N/N=C/c1ccc(CNC(=O)C(=O)Nc2ccccc2)o1,"8.2 µM [falling, partial curve, poor fit]"
3,CCN1CCN(Cc2ccc(NC(=O)c3cc(NC(=O)c4cnn(-c5ccccc5)c4N)cc(OC)c3)cc2C(F)(F)F)CC1,"12.6 µM [falling, partial curve]"
4,O=[N+]([O-])c1ccc(NC(=S)N2CCOCC2)cc1,"0.58 µM [rising, full curve, poor fit]"
5,CCN(CC)C(=O)Cn1cc(S(=O)(=O)CC(=O)Nc2ccc3c(c2)OCCO3)c2ccccc21,"35.5 µM [falling, single point]"
6,Cc1c(/C=N/NC(=O)c2ccccc2O)c2ccccn2c1C(=O)c1ccc(F)cc1,"20.6 µM [falling, partial curve]"
7,COc1cccc(NC(=S)N2CCn3c(nc4ccccc43)C2)c1,"20 µM [falling, partial curve, poor fit]"
8,O=C(CCc1ccccc1)Nc1ccccc1F,"11.6 µM [falling, partial curve]"
9,CCc1c(C)[nH]n(-c2nc(-c3cccc([N+](=O)[O-])c3)cs2)c1=O,"32.6 µM [falling, single point]"
10,O=C1/C(=N\S(=O)(=O)c2cccs2)C([n+]2ccccc2)=C([O-])c2ccccc21,"1.41 µM [falling, full curve, poor fit]"
11,COc1cc(C(=O)Nc2c(-c3ccccn3)c(=O)c3ccccc3n2C)cc(OC)c1OC,"6.31 µM [rising, full curve, poor fit]"
12,CCOC(=O)COn1c2c(c3c4no[n+]([O-])c4ccc31)CCCC2,"25.9 µM [falling, partial curve, poor fit]"
13,COc1ccc(C(=O)NCC(=O)N2CCc3ccccc3C2)cc1,"14.1 µM [rising, partial curve, poor fit]"
14,COc1cccc(C(=O)Nc2ccc(C(=O)O)cc2)c1,"12.6 µM [falling, partial curve, poor fit]"
15,N#C/C(=C\c1ccc(C(=O)O)cc1)c1nc2sc3c(c2c(=O)[nH]1)CCCC3,"11.2 µM [falling, partial curve]"
16,COc1ccc(CCNC(=O)CSc2nc3[nH]ncc3c(=O)n2-c2ccc(C)c(Cl)c2)cc1OC,"35.5 µM [falling, single point]"
17,CC1=C(C(=O)Nc2ccc(C(=O)NC(C)c3ccccc3)cc2)SCCO1 (configuration not stated),"5.62 µM [falling, partial curve, poor fit]"
18,N#Cc1nc(COc2cccc(Cl)c2)oc1NCc1ccncc1,"10 µM [falling, partial curve, poor fit]"
19,COc1cc(CC(=O)NCC2COc3ccccc3O2)cc(OC)c1OC (configuration not stated),"3.16 µM [rising, single point]"
20,CC(=O)Nc1ccc(S(=O)(=O)NCCS(=O)(=O)N2CCN(c3ccccc3F)CC2)cc1,"3.55 µM [rising, full curve, poor fit]"
21,CC(=O)c1ccc(N=Nc2ccc(C)cc2)cc1,"1.58 µM [rising, partial curve, poor fit]"

row,Compound,AC50
1,COc1cc(COCC(O)CN2CCCCC2C)cc(OC)c1OC (configuration not stated),"12.6 µM [rising, single point]"
2,Cc1ccc2c(CC(=O)NCc3cccs3)coc2c1,"29.1 µM [falling, single point]"
3,Cc1cccc(N(Cc2cc(=O)[nH]c3ccccc23)C(=O)CCl)c1,"10 µM [falling, partial curve]"
4,CC(NC(=O)c1ccccc1NS(=O)(=O)c1ccc(CCC(=O)O)cc1)c1ccccc1 (configuration not stated),"3.55 µM [rising, partial curve, poor fit]"
5,Cn1c(=O)n(Cc2ccccc2F)c(=O)c2c1nc1n2CCN1Cc1ccco1,"3.98 µM [falling, single point]"
6,CCCCCCCSc1nsc(N)n1,"23.1 µM [rising, partial curve, poor fit]"
7,O=C(NNc1c2ccccc2nc2ccccc12)c1cc2ccccc2cc1O,"6.51 µM [rising, partial curve, poor fit]"
8,CCc1noc(C)c1C(=O)Nc1cc(S(=O)(=O)N2CCOCC2)ccc1OC(C)C,"6.51 µM [rising, single point]"
9,COc1ccc2c(c1OC)C(=O)NC(C)=C(C(=O)OC(C)(C)C)C2O (configuration not stated),"0.708 µM [falling, full curve]"
10,OCCCNc1cc(-c2ccnc(Nc3cccc(Cl)c3)n2)ccn1,"0.282 µM [falling, full curve, poor fit]"
11,Cn1c(=O)n(C)c2cc([N+](=O)[O-])c(N3CCN(S(C)(=O)=O)CC3)cc21,"5.17 µM [rising, full curve, poor fit]"
12,COc1ccc(NC(=O)/C(C#N)=C\c2ccc(OCc3ccc(C(=O)O)cc3)c(OC)c2)cc1,"2.51 µM [falling, full curve]"
13,O=C(COc1ccccc1Cl)NNC(=O)Cn1[nH]c(=O)c2ccccc2c1=O,"20.6 µM [rising, single point]"
14,CC(=O)C1=C(O)C(=O)N(c2ccc(Br)cn2)C1c1ccc(F)cc1 (configuration not stated),"11.2 µM [falling, partial curve]"
15,O=C(OCc1cc(=O)n2c(n1)sc1ccccc12)c1ccc(O)cc1O,"1.26 µM [rising, full curve, poor fit]"
16,Cc1ccc(F)c(NC=C2C(=O)OC(C)(C)OC2=O)c1,"35.5 µM [rising, partial curve, poor fit]"
17,CSCCC(NC(=O)c1ccc(C(C)(C)C)cc1)C(=O)O (configuration not stated),"6.31 µM [rising, single point]"
18,Cc1cc(C(=O)N/N=C/c2cc(Cl)cc([N+](=O)[O-])c2O)n[nH]1,"5.62 µM [falling, single point]"
19,O=C(COC(=O)c1ccc(Br)o1)Nc1ccc2c(c1)OCCO2,"9.2 µM [rising, partial curve, poor fit]"
20,O=c1[nH]c(C2CCN(S(=O)(=O)c3ccccc3C(F)(F)F)CC2)nc2c1nnn2Cc1cccc(F)c1,"22.4 µM [falling, single point]"
21,COc1ccc(CCNC2CC(=O)N(CCc3ccc(OC)c(OC)c3)C2=O)cc1OC (configuration not stated),"7.31 µM [falling, partial curve, poor fit]"

# Entries above containing fluorine, in the order listed:
row,Compound,AC50
1,O=C(Nc1ccccc1)Nc1ccc(F)cc1F,"25.1 µM [falling, single point]"
3,CCN1CCN(Cc2ccc(NC(=O)c3cc(NC(=O)c4cnn(-c5ccccc5)c4N)cc(OC)c3)cc2C(F)(F)F)CC1,"12.6 µM [falling, partial curve]"
6,Cc1c(/C=N/NC(=O)c2ccccc2O)c2ccccn2c1C(=O)c1ccc(F)cc1,"20.6 µM [falling, partial curve]"
8,O=C(CCc1ccccc1)Nc1ccccc1F,"11.6 µM [falling, partial curve]"
20,CC(=O)Nc1ccc(S(=O)(=O)NCCS(=O)(=O)N2CCN(c3ccccc3F)CC2)cc1,"3.55 µM [rising, full curve, poor fit]"
5,Cn1c(=O)n(Cc2ccccc2F)c(=O)c2c1nc1n2CCN1Cc1ccco1,"3.98 µM [falling, single point]"
14,CC(=O)C1=C(O)C(=O)N(c2ccc(Br)cn2)C1c1ccc(F)cc1 (configuration not stated),"11.2 µM [falling, partial curve]"
16,Cc1ccc(F)c(NC=C2C(=O)OC(C)(C)OC2=O)c1,"35.5 µM [rising, partial curve, poor fit]"
20,O=c1[nH]c(C2CCN(S(=O)(=O)c3ccccc3C(F)(F)F)CC2)nc2c1nnn2Cc1cccc(F)c1,"22.4 µM [falling, single point]"

# Following part.

row,Compound,AC50
1,O=C(NCCc1ccccc1)Nc1ccc2c(c1)OCO2,"15.8 µM [falling, single point]"
2,N#C/C(=C\c1ccc(N2CCOCC2)o1)c1nc2ccccc2[nH]1,"35.5 µM [falling, partial curve, poor fit]"
3,CC(=O)c1ccc(OCCCC(=O)NC2CCCc3ccccc32)cc1 (configuration not stated),"13 µM [rising, partial curve, poor fit]"
4,Clc1ccc(-c2nnc(C3CC3)o2)cc1,"20 µM [rising, single point]"
5,O=C(CNC(=O)c1ccccc1)NCCc1ccc(O)c(O)c1,"11.2 µM [falling, partial curve, poor fit]"
6,CSCC[C@H](NC(=O)[C@@H]1Cc2ccccc2CN1)C(=O)Nc1ccc2c(c1)OCCO2,"11.2 µM [falling, partial curve]"
7,COc1cccc(OC)c1CN1CCCC(C(=O)c2ccccc2SC)C1 (configuration not stated),"35.5 µM [falling, single point]"
8,CC1(C)CC(NC(=O)c2ccccc2F)CC(C)(C)N1,"35.5 µM [falling, partial curve, poor fit]"
9,C=CCn1c(=O)c(C(=O)Nc2ccccc2C(=O)OCC)c(O)c2ccccc21,"1.46 µM [rising, full curve, poor fit]"
10,CCCCCCC(C)OC(=O)Nc1cccc2ccccc12 (configuration not stated),"10 µM [falling, single point]"
11,COCCn1c(SC(C)C(=O)Nc2ccc3c(c2)OCCO3)nc2ccccc2c1=O (configuration not stated),"3.16 µM [falling, full curve, poor fit]"
12,CCN(CC)CC(=O)Nc1ccc2c(c1)N(C(=O)CN(CC)CC)c1ccccc1CC2,"11.6 µM [falling, partial curve, poor fit]"
13,Cc1ccc(-c2cn3c(=O)cc(C)[nH]c3n2)cc1,"2.51 µM [falling, full curve]"
14,O=C(C1=C[C@@H]2[C@H]3C(=O)N(c4ccccc4)C(=O)[C@H]3[C@@H](C(=O)c3ccc(Cl)cc3)N2C=C1)c1ccccc1,"8.2 µM [falling, partial curve]"
15,Cc1ccc(NC(=O)c2cc3c(s2)CCCC3)cc1S(=O)(=O)Nc1ccccc1Cl,"23.1 µM [falling, partial curve, poor fit]"
16,Cc1cccc(NC(=S)NC(=O)/C=C/c2ccco2)n1,"20.6 µM [falling, partial curve, poor fit]"
17,COc1ccc(C(=O)NCC(=O)N/N=C/C(C)=C/c2ccco2)cc1OC,"0.092 µM [rising, full curve, poor fit]"
18,O=C(CO/N=C/c1ccc(Cl)cc1Cl)NNC(=O)c1cccc(Cl)c1,"15.8 µM [rising, single point]"
19,COc1ccc(N(CC(=O)Nc2ccc(F)c(F)c2)S(=O)(=O)c2c(C)n[nH]c2C)cc1,"35.5 µM [falling, single point]"
20,O=C(Nc1ccccc1)/C(=C/c1cccc(Br)c1)NC(=O)c1ccco1,"1.16 µM [rising, full curve]"

# Reformatted tab-delimited: part of the list above
row	Compound	AC50
1	COc1cc(COCC(O)CN2CCCCC2C)cc(OC)c1OC (configuration not stated)	12.6 µM [rising, single point]
2	Cc1ccc2c(CC(=O)NCc3cccs3)coc2c1	29.1 µM [falling, single point]
